Measured values as given in publication PMC3762824.
No constants are given. Whether binding was seen depends on the method and setting. In cells and extracts the contact can be indirect. Some binding calls cover weakened binding; strength is not graded here.

By UniProt entry, the sequences of proteins in these tests, tags left out.
UniProt Q8NDV7: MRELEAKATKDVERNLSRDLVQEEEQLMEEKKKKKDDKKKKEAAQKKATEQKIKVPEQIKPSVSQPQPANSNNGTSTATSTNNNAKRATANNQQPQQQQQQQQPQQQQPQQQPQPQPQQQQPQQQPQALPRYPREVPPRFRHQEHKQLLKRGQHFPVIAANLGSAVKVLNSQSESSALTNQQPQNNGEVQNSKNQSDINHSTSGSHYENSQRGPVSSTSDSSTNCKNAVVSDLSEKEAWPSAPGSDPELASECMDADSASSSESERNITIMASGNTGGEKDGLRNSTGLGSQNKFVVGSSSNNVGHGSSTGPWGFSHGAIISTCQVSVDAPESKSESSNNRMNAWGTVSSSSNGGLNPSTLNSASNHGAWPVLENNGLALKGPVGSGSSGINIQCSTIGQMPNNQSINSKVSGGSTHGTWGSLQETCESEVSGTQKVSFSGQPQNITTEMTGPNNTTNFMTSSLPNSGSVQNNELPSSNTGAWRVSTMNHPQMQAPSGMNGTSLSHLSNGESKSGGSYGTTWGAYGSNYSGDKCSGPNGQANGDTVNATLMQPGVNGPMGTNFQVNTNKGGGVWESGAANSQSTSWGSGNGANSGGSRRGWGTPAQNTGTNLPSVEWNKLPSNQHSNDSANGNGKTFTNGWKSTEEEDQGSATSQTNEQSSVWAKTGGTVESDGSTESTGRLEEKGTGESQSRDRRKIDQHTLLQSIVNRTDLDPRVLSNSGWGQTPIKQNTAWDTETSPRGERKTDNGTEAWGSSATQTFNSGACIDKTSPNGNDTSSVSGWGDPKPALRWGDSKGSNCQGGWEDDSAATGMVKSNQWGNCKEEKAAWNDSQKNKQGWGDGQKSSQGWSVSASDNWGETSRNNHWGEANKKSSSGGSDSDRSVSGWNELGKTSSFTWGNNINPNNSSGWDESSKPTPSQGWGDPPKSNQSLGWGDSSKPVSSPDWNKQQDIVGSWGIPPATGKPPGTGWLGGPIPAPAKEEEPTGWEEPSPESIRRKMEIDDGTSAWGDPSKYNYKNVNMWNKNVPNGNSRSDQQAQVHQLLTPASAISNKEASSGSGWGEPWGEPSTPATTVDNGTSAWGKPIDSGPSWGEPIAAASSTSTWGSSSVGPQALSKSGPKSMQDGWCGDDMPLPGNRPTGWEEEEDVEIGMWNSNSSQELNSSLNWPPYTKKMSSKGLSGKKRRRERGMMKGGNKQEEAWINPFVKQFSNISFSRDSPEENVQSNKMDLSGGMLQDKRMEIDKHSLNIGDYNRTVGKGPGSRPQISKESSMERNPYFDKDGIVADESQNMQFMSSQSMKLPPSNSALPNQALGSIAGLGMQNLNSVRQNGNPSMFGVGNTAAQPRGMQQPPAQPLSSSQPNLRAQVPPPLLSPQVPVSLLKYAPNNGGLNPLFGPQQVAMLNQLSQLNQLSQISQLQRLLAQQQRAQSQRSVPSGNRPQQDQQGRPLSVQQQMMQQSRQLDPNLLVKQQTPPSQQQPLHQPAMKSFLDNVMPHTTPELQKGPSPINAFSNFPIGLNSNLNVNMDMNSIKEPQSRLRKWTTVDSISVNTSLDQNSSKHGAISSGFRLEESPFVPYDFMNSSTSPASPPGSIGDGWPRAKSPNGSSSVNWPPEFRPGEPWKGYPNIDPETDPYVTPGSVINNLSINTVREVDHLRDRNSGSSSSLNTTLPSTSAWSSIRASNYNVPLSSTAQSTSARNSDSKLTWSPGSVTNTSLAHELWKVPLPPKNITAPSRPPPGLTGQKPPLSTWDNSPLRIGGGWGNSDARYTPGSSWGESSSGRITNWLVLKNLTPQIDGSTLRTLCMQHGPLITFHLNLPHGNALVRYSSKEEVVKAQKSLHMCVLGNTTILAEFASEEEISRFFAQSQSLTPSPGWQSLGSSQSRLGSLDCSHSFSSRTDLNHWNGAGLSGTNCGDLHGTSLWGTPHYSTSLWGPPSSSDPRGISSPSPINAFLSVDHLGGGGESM
UniProt Q9UKV8: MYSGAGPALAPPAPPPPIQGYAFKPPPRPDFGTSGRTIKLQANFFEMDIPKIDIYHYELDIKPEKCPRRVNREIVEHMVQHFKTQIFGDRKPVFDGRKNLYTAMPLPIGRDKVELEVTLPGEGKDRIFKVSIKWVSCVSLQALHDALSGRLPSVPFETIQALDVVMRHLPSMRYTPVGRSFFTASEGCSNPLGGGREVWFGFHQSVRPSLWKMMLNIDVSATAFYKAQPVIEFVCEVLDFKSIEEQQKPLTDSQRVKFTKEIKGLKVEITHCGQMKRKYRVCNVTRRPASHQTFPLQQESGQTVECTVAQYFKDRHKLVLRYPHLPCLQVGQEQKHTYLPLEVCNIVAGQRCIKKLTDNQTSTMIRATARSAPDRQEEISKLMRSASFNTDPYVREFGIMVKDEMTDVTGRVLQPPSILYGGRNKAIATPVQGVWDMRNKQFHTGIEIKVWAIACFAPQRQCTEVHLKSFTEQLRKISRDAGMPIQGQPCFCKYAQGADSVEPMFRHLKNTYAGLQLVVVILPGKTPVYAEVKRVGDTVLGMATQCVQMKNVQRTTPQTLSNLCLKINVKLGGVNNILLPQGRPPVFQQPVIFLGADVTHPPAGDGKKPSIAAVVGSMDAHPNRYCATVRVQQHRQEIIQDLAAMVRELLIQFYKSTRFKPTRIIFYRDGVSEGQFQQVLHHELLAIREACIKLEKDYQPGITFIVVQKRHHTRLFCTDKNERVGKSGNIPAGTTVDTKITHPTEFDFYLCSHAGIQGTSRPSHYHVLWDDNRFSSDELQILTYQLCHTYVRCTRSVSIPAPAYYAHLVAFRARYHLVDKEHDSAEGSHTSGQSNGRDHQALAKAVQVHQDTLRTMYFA

Experiments:
[1] = target: GW182 (human (endogenous in U937)) (UniProt Q8NDV7); assay: co-IP; lysates of U937/Nef-EYFP or U937/EYFP cells; IP with anti-Nef, anti-Ago2 or anti-GW182 overnight at 4°C, Protein A-agarose, five washes with lysis buffer, western blot
[2] = target: Argonaute 2 (human (endogenous in U937, U1, J1.1, HEK293T)) (UniProt Q9UKV8); assay: as above

Substance | binding [1] | binding [2]
Argonaute 2 (from UniProt Q9UKV8 1-859) | binds | 
GW182 (from UniProt Q8NDV7 1-1962) |  | binds
